Data as given in patent US20040191910.
The exact form of at least one protein or probe is not confirmed.

By UniProt entry, the sequences of proteins in these tests, tags left out. Chains listed by the source or under a name are the forms on record and can include a tag or linker.
UniProt Q64MA1, other isoform, or with tags, fused parts or gaps: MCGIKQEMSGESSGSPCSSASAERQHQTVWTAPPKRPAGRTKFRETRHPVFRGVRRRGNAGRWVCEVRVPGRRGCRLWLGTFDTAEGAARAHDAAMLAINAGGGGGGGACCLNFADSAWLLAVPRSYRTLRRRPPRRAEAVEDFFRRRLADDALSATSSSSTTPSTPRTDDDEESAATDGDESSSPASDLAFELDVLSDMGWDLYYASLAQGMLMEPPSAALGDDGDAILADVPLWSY
UniProt A2Z389, other isoform, or with tags, fused parts or gaps: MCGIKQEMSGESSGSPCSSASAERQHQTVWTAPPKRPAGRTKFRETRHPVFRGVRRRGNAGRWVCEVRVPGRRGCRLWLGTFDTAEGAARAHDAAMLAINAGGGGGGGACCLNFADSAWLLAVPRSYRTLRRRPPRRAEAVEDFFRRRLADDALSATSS

Experiments:
OsDREB1A (Oryza sativa) [1] = biological target: OsDREB1A (Oryza sativa) (UniProt Q64MA1); test: activity in cells; details: rice protoplast GUS/LUC transactivation; protein in cells; variant of DRE 75 bp fragment of rd29A promoter
OsDREB1A (Oryza sativa) [2] = biological target: OsDREB1A (Oryza sativa) (UniProt A2Z389); test: EMSA; details: room temperature 20 min, 5% PAGE 0.25x TBE; purified recombinant protein; protein details: N-terminal GST (pGEX-4T-1), cDNA nt 69-545; label: 32P

Sequence	activity on this sequence (OsDREB1A (Oryza sativa) [1])	binding result (OsDREB1A (Oryza sativa) [2])
ACATCAGTTTGAAAGAAAAGGGAAAAAAAGAAAAAATAAATAAAAGATATACTACCGACATGAGTTCCAAAAAGCACATCAGTTTGAAAGAAAAGGGAAAAAAAGAAAAAATAAATAAAAGATATACTACCGACATGAGTTCCAAAAAGC (double strand)	active	
ACATCAGTTTGAAAGAAAAGGGAAAAAAAGAAAAAATAAATAAAAGATATACTACCGACATGAGTTCCAAAAAGC (double strand) [DRE 75 bp fragment of rd29A promoter]		binds
